These are yes or no findings as the source states them, for the method shown. Some binding calls cover weakened binding; strength is not graded here.
Legend:
[1] = target: GST-tagged VEGF-D (residues 89-205) D103A (human) (UniProt O43915); experiment: pull-down; 50 ug GST-tagged VEGF-D or mutant on Glutathione Sepharose 4 Fast Flow beads, 50 ug His-VEGFR-3 in 1X PBS, on ice overnight; eluted with 30 mM glutathione; Western blot with anti-His and anti-GST; both purified
[2] = target: GST-tagged VEGF-D (residues 89-205) Q110A (human) (UniProt O43915); experiment: as above

Sequences of proteins named here, by UniProt entry; tags and fusion partners are left off. A change or cut given only in a name is not applied to a line headed by its entry. A line that says so, or that is headed by a name, gives the form on record, which may keep a tag or linker. Residues count along the entry.
GST-tagged VEGF-D (residues 89-205) D103A (O43915, form named): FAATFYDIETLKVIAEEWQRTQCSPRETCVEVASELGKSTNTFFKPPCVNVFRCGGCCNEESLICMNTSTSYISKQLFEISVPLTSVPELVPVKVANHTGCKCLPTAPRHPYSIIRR
GST-tagged VEGF-D (residues 89-205) Q110A (O43915, form named): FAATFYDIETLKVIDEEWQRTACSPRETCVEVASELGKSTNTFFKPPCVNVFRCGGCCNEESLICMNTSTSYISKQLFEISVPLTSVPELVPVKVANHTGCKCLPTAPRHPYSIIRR
UniProt P35916, residues 30-326: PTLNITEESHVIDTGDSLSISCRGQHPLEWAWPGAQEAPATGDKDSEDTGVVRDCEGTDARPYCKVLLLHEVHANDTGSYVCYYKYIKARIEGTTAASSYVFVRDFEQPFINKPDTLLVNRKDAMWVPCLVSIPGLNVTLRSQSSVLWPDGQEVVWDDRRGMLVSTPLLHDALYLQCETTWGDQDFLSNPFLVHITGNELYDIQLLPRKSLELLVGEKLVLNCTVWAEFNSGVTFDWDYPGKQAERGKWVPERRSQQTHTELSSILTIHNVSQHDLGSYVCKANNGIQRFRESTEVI

- binding [1]: binds weakly
- binding [2]: binds weakly
Substance: His-tagged VEGFR-3 (residues 30-326) (from UniProt P35916 30-326) (receptor)
